# PubChem BioAssay AID445 (National Center for Advancing Translational Sciences (NCATS), 2006)
# The list shows a part of the results. Shown are side measurements of this screen, not its main read-out; they come without a call. Compounds called inactive in the main read-out are mostly missing here. The note in brackets gives the kind of curve behind each potency; many fits are weak.
# Assay: IkB Signaling
# Conditions: ABC-DLBCL IkBa-CBG/CBR dual luciferase ratio (green luciferase fused to IkBa over red control in OCI-Ly3 lymphoma cells), 4 h
# Summary of the method: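 Curves were fitted separately to fusion (green), unfused (red) and ratio luminescence, then classed by r2, magnitude and activity. Cells: OCI-Ly3, 4 h compound plus doxycycline at 37C; 10 uM MG-132 defined full response.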
# [1] = measured here: control luc red channel unless noted
# [2] = measured here: IkB-luc green channel
# [3] = measured here: control luc red channel
smiles,measurement,setting,value
O=C(CCn1cnc2onc(-c3ccc(F)cc3)c2c1=O)Nc1cccc(C(F)(F)F)c1,AC50,[1],"25.1 µM [falling, single point]"
Cc1ccc(-n2c(=O)c3c(cnn3C)n(CC(=O)Nc3cccc(Cl)c3)c2=O)cc1,AC50,[1],"20 µM [falling, partial curve]"
Cc1ccc(CNC(=O)C2CCN(C(=O)N3CC(C)Oc4ccc(Cl)cc43)CC2)cc1 (configuration not stated),AC50,[1],"20 µM [falling, single point]"
Cc1ccc(CSc2nc3ccccc3c3nc(CCn4c(C)nc5ccccc54)nn23)cc1,AC50,[1],"6.31 µM [rising, partial curve, poor fit]"
CCOc1ccc(NC(=O)c2ccc3c(=O)n4c(nc3c2)CCCCC4)cc1,AC50,[1],"20 µM [falling, single point]"
Cc1ccc(C)c(N2CCN(CCCNC(=O)c3cnn(-c4cccc(Cl)c4)c3C3CCN(C(=O)OC(C)(C)C)CC3)CC2)c1,AC50,[1],"12.6 µM [falling, partial curve]"
CC(=O)Oc1c(S(=O)(=O)c2ccccc2)c(C)nn1C(C)(C)C,AC50,[2],"39.8 µM [falling, single point]"
same,AC50,[3],"10 µM [falling, partial curve]"
COc1cccc(NS(=O)(=O)c2ccc3[nH]cc(C(=O)NC(C)c4ccccc4)c(=O)c3c2)c1 (configuration not stated),AC50,[1],"12.6 µM [falling, partial curve]"
Cc1cccc(NC(=O)c2cn(-c3ccccc3)nc2-c2ccccc2)c1C,AC50,[1],"25.1 µM [falling, partial curve]"
Cc1ccccc1CN1CCCN(CC(=O)Nc2ccc(F)cc2)S1(=O)=O,AC50,[1],"12.6 µM [falling, partial curve]"
CCOC(=O)c1c(C)oc2nc(C)nc(NCCc3ccc(Cl)cc3)c12,AC50,[1],"25.1 µM [falling, partial curve]"
CC(C)(C)NC(=O)c1cccc(NC(=O)c2ccc(NC(=O)c3ccco3)cc2)c1,AC50,[1],"15.8 µM [falling, partial curve]"
Cc1ccc(/C=C/C(=O)Nc2ccc3nc(N4CCC(C)CC4)cc(C)c3c2)cc1,AC50,[1],"15.8 µM [falling, partial curve]"
Cn1c(=O)oc2cc(S(=O)(=O)NC(Cc3ccccc3)C(=O)Nc3ccc(F)c(Cl)c3)ccc21 (configuration not stated),AC50,[1],"6.31 µM [falling, full curve]"
c1ccc(-c2noc(CSc3nnnn3-c3ccccc3)n2)cc1,AC50,[1],"25.1 µM [falling, partial curve]"
CC1CCc2c(sc3ncnc(N4CCOCC4)c23)C1 (configuration not stated),AC50,[1],"12.6 µM [falling, partial curve]"
CC(OC(=O)c1ccccc1NCc1ccco1)C(=O)Nc1ncc(Cl)cc1Cl (configuration not stated),AC50,[1],"31.6 µM [falling, partial curve]"
Cc1ccc(CNC(=O)c2ccc3c(c2)c(C)c(C)n3Cc2ccc(Cl)cc2)o1,AC50,[1],"25.1 µM [falling, partial curve]"
Cc1c(-c2ccccc2)c(=O)oc2c(CN3CCOCC3)c(O)ccc12,AC50,[1],"12.6 µM [rising, partial curve]"
Cc1ccc(C2C=C(c3ccccc3)Nc3nc(NS(C)(=O)=O)nn32)cc1 (configuration not stated),AC50,[1],"7.94 µM [rising, single point]"
COc1ccc(CCNC(=O)c2ccc3c(c2)N=C(C)c2ccccc2S3)cc1OC,AC50,[1],"39.8 µM [falling, single point]"
CNS(=O)(=O)c1cccc(C(=O)OCC(=O)c2cc(C)n(-c3ccc4c(c3)OCO4)c2C)c1,AC50,[1],"15.8 µM [falling, partial curve]"
COc1ccc(NC(=O)NC(C)c2c(-n3cccc3)sc(C)c2C)cc1OC (configuration not stated),AC50,[1],"31.6 µM [falling, single point]"
CCOc1cccc2sc(NC(=O)c3ccc(S(=O)(=O)N4CCCCC4C)cc3)nc12 (configuration not stated),AC50,[1],"0.316 µM [falling, full curve]"
CCOC(=O)c1c(C)[nH]c(C)c1S(=O)(=O)N1CCN(c2cc(Cl)ccc2C)CC1,AC50,[1],"25.1 µM [falling, single point]"
Clc1ccccc1Cn1c(-c2cccs2)nc2ccccc21,AC50,[1],"6.31 µM [rising, single point]"
Cc1nnc(NC(=O)c2nc(SC(C)C)ncc2Cl)s1,AC50,[1],"15.8 µM [falling, partial curve]"
CCc1cccc(NC(=O)c2ccc3c(c2)N(Cc2cccc(Cl)c2)C(=O)c2ccccc2S3=O)c1 (configuration not stated),AC50,[1],"15.8 µM [falling, single point]"
Cc1ccc(-c2cc(C(=O)NCc3ccc4c(c3)OCO4)[nH]n2)c(O)c1C,AC50,[1],"39.8 µM [rising, single point] [measured here: IkB-luc green channel]"
CC(=O)NCCOc1ccc(C(=O)O)cc1,AC50,[1],"15.8 µM [falling, partial curve]"
CC(C)(C)n1nnnc1C(c1ccccc1F)N(Cc1ccco1)CC1CCCO1 (configuration not stated),AC50,[1],"25.1 µM [falling, single point]"
CC(C)C(=O)Nc1cccc2nsnc12,AC50,[1],"20 µM [falling, partial curve]"
Cc1cccc(N2CCN(C(=O)CCS(=O)(=O)c3ccc4c(c3)CC(=O)N4C)CC2C)c1 (configuration not stated),AC50,[1],"10 µM [falling, partial curve, poor fit]"
COC(=O)Nc1nc2ccc(SC(C)C)cc2[nH]1,AC50,[2],"2.51 µM [rising, full curve]"
same,AC50,[3],"2 µM [rising, full curve]"
CC(=O)N1CCN(c2csc3ccc(Cl)cc3c2=O)CC1,AC50,[1],"0.158 µM [rising, full curve]"
Cc1cccc(C(c2sc3nc(-c4ccco4)nn3c2O)N2CCOCC2)c1 (configuration not stated),AC50,[1],"20 µM [rising, single point]"
CCNc1nc2c(c(=O)n(C)c(=O)n2C)n1Cc1ccc(F)cc1,AC50,[1],"1 µM [falling, full curve, poor fit]"
Cc1ccc(CSC2=NC(C)(C)Nc3ccccc32)c(C)c1,AC50,[1],"7.94 µM [falling, full curve]"
COc1ccc(-c2csc3ncnc(Nc4ccccc4)c23)cc1,AC50,[1],"10 µM [falling, partial curve]"
COC(=O)C1=C(C)NC(C)=C(C(=O)OCCCN2CCC(c3ccccc3)(c3ccccc3)CC2)[C@H]1c1cccc([N+](=O)[O-])c1,AC50,[1],"31.6 µM [falling, partial curve]"

# Quoted at random: 2 records from the list.
smiles,measurement,setting,value
CC1CCc2c(sc3ncnc(N4CCOCC4)c23)C1 (configuration not stated),AC50,[1],"12.6 µM [falling, partial curve]"
CCOC(=O)c1c(C)oc2nc(C)nc(NCCc3ccc(Cl)cc3)c12,AC50,[1],"25.1 µM [falling, partial curve]"
